From PMC8055027
Results are given in words; binding and its absence hold for the method and conditions named. Binding seen in cells or lysates may run through a third protein. Some binding calls cover weakened binding; strength is not graded here.

Sequences of proteins named here, by UniProt entry; tags and fusion partners are left off.
UniProt P11388: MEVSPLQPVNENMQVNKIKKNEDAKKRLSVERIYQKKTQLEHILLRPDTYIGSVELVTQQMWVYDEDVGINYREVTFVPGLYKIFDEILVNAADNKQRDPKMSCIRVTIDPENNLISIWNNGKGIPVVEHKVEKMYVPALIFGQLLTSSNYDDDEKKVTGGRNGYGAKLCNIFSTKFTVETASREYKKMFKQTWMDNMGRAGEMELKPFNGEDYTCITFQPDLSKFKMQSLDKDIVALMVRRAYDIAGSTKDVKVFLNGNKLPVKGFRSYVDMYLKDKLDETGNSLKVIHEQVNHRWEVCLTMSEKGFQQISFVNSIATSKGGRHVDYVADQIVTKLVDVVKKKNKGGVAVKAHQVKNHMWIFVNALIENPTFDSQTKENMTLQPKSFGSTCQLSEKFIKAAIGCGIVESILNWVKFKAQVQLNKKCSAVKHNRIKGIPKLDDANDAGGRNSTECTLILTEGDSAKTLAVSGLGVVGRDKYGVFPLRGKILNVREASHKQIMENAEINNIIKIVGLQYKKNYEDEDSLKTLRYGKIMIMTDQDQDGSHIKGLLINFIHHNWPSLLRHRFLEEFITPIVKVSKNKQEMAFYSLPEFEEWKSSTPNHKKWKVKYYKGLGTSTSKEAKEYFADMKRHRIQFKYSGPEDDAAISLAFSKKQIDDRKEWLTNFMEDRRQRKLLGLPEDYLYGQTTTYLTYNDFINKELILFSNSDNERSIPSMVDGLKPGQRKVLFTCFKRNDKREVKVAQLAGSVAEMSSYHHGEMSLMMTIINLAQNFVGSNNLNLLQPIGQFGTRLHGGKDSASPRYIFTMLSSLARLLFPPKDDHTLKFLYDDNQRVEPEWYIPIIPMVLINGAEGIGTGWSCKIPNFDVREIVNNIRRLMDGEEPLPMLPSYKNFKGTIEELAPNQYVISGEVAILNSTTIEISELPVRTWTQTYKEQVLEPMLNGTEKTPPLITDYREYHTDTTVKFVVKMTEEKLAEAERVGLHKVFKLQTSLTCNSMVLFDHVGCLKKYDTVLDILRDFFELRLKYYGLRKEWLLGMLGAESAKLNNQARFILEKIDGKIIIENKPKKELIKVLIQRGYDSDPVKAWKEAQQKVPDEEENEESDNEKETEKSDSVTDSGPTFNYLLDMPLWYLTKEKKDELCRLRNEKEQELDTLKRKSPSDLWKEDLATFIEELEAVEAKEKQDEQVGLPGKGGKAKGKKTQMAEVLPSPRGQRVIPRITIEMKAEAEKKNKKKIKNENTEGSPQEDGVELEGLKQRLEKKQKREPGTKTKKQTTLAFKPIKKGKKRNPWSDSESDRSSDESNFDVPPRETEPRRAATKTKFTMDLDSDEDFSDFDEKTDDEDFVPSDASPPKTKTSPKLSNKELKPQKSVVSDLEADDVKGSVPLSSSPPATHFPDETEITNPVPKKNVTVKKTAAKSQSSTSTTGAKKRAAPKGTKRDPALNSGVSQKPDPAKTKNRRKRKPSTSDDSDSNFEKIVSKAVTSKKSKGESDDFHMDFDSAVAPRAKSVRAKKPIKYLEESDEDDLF
UniProt Q92922: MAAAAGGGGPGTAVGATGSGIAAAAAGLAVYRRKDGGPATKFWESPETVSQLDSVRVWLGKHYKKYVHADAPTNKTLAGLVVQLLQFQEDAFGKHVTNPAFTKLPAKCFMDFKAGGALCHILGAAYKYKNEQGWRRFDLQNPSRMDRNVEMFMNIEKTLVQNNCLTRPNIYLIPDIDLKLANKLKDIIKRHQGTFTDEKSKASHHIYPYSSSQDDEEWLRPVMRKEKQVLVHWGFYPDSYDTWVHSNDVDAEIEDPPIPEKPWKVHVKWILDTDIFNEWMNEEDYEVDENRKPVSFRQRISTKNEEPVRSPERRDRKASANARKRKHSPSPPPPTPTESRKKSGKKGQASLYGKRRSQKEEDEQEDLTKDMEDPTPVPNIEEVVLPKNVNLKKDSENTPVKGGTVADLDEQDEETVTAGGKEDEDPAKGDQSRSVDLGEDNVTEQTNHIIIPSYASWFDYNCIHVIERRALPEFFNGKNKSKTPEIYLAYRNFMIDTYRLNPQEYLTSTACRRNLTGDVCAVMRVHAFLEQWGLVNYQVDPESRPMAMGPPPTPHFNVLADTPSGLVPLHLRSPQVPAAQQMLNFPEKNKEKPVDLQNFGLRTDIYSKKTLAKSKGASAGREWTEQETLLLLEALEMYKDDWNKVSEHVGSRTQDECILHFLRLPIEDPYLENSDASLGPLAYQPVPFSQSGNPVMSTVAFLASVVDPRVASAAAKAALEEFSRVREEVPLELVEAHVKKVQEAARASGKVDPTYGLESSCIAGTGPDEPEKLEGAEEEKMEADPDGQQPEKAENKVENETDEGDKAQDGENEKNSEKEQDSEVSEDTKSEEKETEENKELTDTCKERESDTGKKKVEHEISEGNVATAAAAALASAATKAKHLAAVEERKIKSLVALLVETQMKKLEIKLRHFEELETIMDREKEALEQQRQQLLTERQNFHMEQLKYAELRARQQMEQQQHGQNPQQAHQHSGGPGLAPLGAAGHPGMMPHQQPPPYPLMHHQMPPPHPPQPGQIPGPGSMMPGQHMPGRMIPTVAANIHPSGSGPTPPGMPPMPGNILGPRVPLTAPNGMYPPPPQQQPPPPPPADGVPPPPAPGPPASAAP
UniProt P51532: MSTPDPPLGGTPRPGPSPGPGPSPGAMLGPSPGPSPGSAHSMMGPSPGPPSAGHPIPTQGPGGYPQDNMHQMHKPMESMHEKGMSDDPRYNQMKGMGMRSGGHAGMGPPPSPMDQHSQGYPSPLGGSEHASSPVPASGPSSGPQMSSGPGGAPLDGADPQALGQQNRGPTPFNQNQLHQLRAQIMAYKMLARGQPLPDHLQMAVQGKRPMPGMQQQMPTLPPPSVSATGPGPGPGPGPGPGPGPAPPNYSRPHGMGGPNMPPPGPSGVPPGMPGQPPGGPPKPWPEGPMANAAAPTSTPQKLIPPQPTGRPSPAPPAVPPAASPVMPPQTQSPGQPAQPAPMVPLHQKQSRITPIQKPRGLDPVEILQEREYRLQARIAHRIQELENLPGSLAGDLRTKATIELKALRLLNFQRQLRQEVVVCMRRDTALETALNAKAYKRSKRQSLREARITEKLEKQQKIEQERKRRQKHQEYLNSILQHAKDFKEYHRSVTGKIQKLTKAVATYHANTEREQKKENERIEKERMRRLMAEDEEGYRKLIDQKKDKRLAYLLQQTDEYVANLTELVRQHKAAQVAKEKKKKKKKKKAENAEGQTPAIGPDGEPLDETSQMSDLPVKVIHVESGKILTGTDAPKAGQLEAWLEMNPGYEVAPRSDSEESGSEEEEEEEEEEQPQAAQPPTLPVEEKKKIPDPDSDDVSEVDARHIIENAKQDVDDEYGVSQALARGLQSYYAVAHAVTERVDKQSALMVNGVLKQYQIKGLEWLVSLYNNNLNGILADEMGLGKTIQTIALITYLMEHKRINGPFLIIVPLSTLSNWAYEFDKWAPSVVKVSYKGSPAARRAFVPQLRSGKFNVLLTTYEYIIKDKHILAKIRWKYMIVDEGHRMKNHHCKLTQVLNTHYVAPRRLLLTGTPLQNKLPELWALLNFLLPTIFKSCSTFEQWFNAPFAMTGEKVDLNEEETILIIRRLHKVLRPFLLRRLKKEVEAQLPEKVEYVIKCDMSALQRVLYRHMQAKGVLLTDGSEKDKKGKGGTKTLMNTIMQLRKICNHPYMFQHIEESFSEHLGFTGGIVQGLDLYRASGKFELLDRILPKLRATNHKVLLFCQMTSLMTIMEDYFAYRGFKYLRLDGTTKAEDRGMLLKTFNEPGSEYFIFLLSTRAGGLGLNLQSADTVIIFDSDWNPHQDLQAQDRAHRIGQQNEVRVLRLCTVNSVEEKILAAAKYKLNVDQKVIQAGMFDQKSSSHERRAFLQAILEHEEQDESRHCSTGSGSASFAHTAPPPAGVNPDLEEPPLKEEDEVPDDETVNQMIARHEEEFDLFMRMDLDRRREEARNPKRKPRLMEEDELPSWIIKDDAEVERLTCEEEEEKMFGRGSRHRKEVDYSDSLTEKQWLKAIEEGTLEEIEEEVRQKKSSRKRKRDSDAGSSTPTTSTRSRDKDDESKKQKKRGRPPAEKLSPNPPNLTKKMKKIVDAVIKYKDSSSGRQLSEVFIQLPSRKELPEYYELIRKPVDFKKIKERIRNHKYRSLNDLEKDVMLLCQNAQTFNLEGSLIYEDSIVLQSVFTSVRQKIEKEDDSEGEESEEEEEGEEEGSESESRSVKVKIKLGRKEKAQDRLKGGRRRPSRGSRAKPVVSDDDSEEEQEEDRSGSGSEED

Target: Topoisomerase IIα (human (endogenous in RMG1)) (UniProt P11388)
Assay: co-IP; TOP2A antibody (3 ug) on Protein G magnetic beads; total nuclear protein of ARID1A-WT and ARID1A-KO RMG1 cells in CHAPS buffer, 4°C overnight, 4 washes with CHAPS buffer; western blot; IgG control

Substance	binding
BAF155 subunit of the BAF complex (from UniProt Q92922 1-1105)	binds
Brg1, catalytic subunit of the BAF complex (from UniProt P51532 1-1647)	binds
